Some of the results follow. The data scatter; read single values as rough.
compound: ClCC(=O)N[C@H]1CCCc2ccccc12; test: log2 mean competition ratio of IA-DTB cysteine labelling (DMSO/compound) (log2 ratio); higher = stronger cysteine engagement by compound; conditions: 200 µM; treatment time: 4 h; cell line lysate: HEK293T
Experimental: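 IA-DTB competitive cysteine chemoproteomics in HEK293T RIPA lysate. Lysates were treated with compound 29 or 30 at 50 or 200 µM for 4 h, then IA-DTB (500 µM, 1 h), trypsin-digested, NeutrAvidin-enriched and analysed by diaPASEF. Competition ratio = intensity DMSO / intensity compound (n=4 treated, n=64 DMSO); binding: mean log2 CR ≥ 1 and p ≤ 0.05 plus QC filters. Target is the cysteine site.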

Sequences of proteins named here, by UniProt entry; tags and fusion partners are left off. A change or cut given only in a name is not applied to a line headed by its entry.
UniProt Q9UK39: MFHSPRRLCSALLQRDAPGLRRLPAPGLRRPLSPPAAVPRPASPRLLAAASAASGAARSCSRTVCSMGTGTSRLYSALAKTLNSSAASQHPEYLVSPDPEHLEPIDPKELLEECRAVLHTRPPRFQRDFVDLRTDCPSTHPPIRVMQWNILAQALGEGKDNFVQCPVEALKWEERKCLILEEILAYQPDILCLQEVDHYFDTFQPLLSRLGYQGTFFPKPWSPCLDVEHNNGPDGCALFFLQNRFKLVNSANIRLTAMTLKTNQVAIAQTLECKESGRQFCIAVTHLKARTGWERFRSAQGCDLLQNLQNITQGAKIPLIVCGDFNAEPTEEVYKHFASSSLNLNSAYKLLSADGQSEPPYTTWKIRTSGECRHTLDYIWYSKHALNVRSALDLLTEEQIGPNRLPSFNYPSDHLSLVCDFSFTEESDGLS
UniProt Q6IBW4: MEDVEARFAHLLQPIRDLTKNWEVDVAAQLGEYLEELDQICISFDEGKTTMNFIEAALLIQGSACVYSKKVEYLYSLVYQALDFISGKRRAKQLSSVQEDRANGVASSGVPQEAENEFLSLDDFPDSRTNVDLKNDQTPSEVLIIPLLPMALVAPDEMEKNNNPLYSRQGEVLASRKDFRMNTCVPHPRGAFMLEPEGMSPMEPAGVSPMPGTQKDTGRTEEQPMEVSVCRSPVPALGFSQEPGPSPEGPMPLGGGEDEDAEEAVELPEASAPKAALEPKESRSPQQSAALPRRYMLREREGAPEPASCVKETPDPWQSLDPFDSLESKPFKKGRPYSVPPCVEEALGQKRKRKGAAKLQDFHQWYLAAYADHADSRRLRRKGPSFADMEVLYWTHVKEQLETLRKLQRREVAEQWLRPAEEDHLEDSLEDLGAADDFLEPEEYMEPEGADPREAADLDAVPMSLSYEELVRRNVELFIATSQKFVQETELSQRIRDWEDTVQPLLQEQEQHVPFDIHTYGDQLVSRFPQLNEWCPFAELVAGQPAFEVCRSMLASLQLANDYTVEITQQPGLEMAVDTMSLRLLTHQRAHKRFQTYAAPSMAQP
UniProt Q86UT6, whole entry, looked up: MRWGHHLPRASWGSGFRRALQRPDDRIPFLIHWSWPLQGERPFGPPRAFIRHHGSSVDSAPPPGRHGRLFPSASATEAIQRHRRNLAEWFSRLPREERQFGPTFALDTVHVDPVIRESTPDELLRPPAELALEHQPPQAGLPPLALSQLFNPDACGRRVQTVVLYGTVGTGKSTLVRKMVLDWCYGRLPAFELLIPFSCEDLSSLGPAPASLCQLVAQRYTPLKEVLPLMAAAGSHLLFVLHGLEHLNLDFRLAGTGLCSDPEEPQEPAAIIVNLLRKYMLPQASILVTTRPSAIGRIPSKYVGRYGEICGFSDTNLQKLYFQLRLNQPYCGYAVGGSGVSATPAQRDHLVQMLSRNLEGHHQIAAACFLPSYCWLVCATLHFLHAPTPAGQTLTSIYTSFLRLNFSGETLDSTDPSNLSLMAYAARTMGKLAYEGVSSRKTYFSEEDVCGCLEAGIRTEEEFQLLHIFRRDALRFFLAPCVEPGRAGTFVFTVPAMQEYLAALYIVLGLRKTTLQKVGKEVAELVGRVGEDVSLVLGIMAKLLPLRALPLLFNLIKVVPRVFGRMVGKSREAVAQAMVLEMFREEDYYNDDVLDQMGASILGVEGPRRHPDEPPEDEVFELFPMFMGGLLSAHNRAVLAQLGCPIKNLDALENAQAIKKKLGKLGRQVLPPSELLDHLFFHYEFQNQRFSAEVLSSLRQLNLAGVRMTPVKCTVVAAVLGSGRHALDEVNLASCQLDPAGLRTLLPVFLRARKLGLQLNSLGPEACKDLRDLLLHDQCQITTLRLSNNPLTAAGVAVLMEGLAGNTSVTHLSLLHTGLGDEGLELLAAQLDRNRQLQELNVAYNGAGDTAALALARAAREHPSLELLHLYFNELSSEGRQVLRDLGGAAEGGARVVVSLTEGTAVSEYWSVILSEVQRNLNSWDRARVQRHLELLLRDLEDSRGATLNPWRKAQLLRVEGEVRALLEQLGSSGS
UniProt Q9GZT8: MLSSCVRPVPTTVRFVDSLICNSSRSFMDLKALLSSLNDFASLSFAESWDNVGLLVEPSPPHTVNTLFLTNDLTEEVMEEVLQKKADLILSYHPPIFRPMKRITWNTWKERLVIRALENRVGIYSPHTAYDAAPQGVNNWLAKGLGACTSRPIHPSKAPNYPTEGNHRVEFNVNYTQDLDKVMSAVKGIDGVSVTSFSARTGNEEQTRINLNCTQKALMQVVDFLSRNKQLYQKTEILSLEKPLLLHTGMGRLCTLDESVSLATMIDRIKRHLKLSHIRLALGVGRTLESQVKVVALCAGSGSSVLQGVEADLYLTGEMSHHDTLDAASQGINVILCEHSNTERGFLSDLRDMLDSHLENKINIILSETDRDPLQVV
UniProt Q6ZNB6: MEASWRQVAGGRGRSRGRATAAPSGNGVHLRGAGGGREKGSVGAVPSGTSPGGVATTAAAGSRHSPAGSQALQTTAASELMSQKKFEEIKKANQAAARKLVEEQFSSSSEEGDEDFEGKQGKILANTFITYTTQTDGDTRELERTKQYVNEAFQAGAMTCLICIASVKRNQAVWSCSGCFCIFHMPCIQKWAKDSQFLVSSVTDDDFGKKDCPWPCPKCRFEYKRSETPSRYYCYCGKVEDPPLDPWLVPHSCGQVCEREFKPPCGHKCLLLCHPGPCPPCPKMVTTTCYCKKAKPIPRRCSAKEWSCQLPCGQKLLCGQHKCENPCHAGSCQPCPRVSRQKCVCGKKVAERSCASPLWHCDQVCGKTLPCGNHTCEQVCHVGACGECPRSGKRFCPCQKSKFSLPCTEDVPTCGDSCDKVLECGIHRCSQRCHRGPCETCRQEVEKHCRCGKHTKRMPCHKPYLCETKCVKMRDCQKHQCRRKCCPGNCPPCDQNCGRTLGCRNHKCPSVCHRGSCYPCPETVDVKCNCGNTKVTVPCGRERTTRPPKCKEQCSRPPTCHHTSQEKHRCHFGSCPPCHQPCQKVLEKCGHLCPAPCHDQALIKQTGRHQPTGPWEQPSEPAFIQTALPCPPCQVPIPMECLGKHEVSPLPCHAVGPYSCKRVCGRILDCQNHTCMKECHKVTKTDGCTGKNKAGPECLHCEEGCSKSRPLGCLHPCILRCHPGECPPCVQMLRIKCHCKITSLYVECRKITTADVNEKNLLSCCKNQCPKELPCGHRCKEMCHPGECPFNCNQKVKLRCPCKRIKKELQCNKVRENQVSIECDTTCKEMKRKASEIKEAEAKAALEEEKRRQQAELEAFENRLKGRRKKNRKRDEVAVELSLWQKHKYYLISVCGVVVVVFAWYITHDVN
UniProt Q9Y3C1: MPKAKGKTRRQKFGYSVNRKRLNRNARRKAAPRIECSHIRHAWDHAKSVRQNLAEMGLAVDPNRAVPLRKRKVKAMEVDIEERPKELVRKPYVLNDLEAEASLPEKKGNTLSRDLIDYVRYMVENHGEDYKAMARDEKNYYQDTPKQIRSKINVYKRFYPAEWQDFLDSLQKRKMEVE
UniProt Q9P032: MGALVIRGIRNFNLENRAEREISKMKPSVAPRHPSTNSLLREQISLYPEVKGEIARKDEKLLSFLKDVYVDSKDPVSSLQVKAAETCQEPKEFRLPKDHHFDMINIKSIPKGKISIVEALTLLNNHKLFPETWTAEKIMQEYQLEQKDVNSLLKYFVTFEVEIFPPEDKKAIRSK
UniProt Q15021, whole entry, looked up: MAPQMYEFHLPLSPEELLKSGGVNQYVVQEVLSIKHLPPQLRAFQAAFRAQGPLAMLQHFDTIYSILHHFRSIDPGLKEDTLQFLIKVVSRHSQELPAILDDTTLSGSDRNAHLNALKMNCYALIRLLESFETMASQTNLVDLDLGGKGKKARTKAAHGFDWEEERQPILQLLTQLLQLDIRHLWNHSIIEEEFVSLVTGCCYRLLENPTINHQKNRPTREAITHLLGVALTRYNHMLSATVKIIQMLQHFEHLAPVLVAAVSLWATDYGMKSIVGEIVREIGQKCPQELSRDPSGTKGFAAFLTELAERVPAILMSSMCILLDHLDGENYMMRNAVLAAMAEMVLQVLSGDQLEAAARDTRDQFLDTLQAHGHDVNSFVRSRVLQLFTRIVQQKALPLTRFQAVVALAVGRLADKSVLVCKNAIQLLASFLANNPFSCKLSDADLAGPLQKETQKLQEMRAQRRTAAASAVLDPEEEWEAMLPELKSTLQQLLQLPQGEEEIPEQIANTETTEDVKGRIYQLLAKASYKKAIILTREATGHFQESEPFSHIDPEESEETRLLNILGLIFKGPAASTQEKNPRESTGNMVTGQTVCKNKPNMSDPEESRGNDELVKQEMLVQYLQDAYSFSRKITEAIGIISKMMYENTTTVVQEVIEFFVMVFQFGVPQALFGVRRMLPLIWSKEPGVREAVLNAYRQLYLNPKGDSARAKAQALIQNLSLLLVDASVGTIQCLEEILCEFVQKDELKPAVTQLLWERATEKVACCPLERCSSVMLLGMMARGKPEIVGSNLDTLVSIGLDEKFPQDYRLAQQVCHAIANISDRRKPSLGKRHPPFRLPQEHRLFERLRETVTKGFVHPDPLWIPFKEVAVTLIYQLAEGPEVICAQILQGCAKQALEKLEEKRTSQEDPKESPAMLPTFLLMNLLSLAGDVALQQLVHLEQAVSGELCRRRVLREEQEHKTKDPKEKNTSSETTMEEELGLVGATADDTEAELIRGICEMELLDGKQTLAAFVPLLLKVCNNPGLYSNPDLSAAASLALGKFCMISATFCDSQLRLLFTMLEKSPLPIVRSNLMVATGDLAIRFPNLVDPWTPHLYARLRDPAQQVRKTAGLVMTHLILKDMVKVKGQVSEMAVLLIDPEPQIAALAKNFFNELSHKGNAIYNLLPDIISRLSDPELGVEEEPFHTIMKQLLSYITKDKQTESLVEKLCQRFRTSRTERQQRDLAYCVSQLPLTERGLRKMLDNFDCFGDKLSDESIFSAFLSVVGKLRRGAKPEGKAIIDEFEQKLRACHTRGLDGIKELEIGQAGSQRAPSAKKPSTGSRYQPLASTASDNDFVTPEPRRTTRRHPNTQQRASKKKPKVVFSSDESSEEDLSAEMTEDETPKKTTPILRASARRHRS
UniProt Q9BYG3: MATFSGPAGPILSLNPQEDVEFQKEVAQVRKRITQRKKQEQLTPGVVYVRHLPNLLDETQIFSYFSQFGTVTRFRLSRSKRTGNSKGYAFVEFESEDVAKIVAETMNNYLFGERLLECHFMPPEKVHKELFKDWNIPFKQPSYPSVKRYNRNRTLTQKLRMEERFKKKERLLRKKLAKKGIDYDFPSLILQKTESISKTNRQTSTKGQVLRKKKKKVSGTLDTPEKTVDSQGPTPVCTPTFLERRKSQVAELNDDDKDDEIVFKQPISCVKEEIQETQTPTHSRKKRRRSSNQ
UniProt Q96TA1: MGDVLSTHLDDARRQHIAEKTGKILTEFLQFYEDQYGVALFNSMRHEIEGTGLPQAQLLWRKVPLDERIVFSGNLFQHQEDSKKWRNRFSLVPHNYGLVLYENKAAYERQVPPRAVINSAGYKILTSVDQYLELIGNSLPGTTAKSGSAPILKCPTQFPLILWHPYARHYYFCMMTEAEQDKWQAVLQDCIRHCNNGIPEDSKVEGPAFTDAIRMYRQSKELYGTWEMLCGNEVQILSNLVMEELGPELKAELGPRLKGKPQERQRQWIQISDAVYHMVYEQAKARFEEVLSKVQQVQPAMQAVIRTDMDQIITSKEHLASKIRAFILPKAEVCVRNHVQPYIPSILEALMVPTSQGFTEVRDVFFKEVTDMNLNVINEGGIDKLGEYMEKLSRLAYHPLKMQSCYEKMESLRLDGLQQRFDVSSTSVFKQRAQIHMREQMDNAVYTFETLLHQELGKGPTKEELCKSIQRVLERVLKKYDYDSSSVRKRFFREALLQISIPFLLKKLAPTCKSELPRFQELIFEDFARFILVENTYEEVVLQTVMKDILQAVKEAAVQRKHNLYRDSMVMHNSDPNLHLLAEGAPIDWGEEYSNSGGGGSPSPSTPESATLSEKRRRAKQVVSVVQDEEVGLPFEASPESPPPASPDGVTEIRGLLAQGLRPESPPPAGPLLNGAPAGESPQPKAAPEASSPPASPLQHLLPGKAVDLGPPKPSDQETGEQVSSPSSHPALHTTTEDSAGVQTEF
UniProt Q969S2: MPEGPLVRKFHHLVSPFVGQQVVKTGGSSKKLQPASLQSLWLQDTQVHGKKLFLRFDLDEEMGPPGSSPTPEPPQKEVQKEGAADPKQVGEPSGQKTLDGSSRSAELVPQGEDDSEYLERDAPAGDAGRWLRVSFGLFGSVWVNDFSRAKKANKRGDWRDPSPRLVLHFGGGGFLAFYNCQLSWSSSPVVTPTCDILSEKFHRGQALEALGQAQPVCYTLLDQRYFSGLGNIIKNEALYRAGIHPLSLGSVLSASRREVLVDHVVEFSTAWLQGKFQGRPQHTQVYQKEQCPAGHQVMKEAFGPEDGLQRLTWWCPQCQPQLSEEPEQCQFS

Row | Target | log2 mean competition ratio
1 | NOCT C114 (UniProt Q9UK39) | 0.0742
2 | NCAPD3 C453 (UniProt P42695) | -0.00798
3 | NKRF C37 (UniProt O15226) | -0.32
4 | NOP2 C463 (UniProt P46087) | -0.00891
5 | NIT1 C203 (UniProt Q86X76) | 0.239
6 | NAXE C283 (UniProt Q8NCW5) | -0.187
7 | NEMP1 C434 (UniProt O14524) | 0.117
8 | NCAPH2 C184 (UniProt Q6IBW4) | -0.12
9 | NCAPH C114 (UniProt Q15003) | -0.0924
10 | NCDN C491 (UniProt Q9UBB6) | 0.0415
11 | NAT10 C517 (UniProt Q9H0A0) | -0.344
12 | NLRX1 C481 (UniProt Q86UT6) | -0.0962
13 | NCDN C292 (UniProt Q9UBB6) | -0.154
14 | NIBAN1 C516 (UniProt Q9BZQ8) | -0.32
15 | NOL6 C1034 (UniProt Q9H6R4) | 0.484
16 | NIF3L1 C213 (UniProt Q9GZT8) | -0.139
17 | NFXL1 C775 (UniProt Q6ZNB6) | -0.155
18 | NHSL1 C1554 (UniProt Q5SYE7) | -0.0453
19 | NOP16 C36 (UniProt Q9Y3C1) | -0.312

Quoted at random: two records from the list, in no set order.
Row | Target | log2 mean competition ratio
14 | NIBAN1 C516 (UniProt Q9BZQ8) | -0.32
11 | NAT10 C517 (UniProt Q9H0A0) | -0.344

Continued:

Row | Target | log2 mean competition ratio
20 | NEK4 C664 (UniProt P51957) | 0.0764
21 | NCBP1 C332 (UniProt Q09161) | -0.282
22 | NIPBL C1971 (UniProt Q6KC79) | -0.0514
23 | NDUFA10 C183 (UniProt O95299) | 0.129
24 | NLN C199 (UniProt Q9BYT8) | -0.0394
25 | NDUFB10 C119 (UniProt O96000) | 0.404
26 | NEK9 C260 (UniProt Q8TD19) | 0.312
27 | NDUFAF4 C87 (UniProt Q9P032) | -0.0449
28 | NCOA4 C184 (UniProt Q13772) | 0.144
29 | NOL11 C333 (UniProt Q9H8H0) | -0.0821
30 | NCAPD3 C1484 (UniProt P42695) | 0.366
31 | NCAPD2 C1249 (UniProt Q15021) | 0.106
32 | NEU1 C299 (UniProt Q99519) | 0.1
33 | NFX1 C684 (UniProt Q12986) | 0.119
34 | NIPBL C1795 (UniProt Q6KC79) | 0.0745
35 | NIFK C269 (UniProt Q9BYG3) | 0.0759
36 | NIBAN2 C466 (UniProt Q96TA1) | 0.0609
37 | NEIL2 C291 (UniProt Q969S2) | 0.204
